No constants are given. Whether binding was seen depends on the method and setting. Binding seen in cells or lysates may run through a third protein. These calls come from enrichment with a bait or labelling near it, and not all partners need be listed.
T1: Ultraspiracle (USP) (Drosophila melanogaster (endogenous in white prepupae)) (UniProt P20153)
T1 sequence: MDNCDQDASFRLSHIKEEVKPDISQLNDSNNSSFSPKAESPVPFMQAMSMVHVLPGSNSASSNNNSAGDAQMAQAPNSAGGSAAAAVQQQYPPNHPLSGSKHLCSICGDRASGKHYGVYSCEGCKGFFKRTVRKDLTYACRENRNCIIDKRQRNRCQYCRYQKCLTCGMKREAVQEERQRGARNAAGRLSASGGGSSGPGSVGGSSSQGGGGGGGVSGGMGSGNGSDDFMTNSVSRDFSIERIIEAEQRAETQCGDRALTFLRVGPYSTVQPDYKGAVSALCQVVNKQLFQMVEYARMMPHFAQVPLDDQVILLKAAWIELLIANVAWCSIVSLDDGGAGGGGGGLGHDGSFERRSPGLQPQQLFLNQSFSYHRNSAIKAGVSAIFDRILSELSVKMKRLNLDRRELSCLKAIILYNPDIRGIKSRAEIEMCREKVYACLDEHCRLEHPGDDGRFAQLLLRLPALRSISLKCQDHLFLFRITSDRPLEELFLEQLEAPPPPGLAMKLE

By UniProt entry, the sequences of proteins in these tests, tags left out.
UniProt Q9VW47: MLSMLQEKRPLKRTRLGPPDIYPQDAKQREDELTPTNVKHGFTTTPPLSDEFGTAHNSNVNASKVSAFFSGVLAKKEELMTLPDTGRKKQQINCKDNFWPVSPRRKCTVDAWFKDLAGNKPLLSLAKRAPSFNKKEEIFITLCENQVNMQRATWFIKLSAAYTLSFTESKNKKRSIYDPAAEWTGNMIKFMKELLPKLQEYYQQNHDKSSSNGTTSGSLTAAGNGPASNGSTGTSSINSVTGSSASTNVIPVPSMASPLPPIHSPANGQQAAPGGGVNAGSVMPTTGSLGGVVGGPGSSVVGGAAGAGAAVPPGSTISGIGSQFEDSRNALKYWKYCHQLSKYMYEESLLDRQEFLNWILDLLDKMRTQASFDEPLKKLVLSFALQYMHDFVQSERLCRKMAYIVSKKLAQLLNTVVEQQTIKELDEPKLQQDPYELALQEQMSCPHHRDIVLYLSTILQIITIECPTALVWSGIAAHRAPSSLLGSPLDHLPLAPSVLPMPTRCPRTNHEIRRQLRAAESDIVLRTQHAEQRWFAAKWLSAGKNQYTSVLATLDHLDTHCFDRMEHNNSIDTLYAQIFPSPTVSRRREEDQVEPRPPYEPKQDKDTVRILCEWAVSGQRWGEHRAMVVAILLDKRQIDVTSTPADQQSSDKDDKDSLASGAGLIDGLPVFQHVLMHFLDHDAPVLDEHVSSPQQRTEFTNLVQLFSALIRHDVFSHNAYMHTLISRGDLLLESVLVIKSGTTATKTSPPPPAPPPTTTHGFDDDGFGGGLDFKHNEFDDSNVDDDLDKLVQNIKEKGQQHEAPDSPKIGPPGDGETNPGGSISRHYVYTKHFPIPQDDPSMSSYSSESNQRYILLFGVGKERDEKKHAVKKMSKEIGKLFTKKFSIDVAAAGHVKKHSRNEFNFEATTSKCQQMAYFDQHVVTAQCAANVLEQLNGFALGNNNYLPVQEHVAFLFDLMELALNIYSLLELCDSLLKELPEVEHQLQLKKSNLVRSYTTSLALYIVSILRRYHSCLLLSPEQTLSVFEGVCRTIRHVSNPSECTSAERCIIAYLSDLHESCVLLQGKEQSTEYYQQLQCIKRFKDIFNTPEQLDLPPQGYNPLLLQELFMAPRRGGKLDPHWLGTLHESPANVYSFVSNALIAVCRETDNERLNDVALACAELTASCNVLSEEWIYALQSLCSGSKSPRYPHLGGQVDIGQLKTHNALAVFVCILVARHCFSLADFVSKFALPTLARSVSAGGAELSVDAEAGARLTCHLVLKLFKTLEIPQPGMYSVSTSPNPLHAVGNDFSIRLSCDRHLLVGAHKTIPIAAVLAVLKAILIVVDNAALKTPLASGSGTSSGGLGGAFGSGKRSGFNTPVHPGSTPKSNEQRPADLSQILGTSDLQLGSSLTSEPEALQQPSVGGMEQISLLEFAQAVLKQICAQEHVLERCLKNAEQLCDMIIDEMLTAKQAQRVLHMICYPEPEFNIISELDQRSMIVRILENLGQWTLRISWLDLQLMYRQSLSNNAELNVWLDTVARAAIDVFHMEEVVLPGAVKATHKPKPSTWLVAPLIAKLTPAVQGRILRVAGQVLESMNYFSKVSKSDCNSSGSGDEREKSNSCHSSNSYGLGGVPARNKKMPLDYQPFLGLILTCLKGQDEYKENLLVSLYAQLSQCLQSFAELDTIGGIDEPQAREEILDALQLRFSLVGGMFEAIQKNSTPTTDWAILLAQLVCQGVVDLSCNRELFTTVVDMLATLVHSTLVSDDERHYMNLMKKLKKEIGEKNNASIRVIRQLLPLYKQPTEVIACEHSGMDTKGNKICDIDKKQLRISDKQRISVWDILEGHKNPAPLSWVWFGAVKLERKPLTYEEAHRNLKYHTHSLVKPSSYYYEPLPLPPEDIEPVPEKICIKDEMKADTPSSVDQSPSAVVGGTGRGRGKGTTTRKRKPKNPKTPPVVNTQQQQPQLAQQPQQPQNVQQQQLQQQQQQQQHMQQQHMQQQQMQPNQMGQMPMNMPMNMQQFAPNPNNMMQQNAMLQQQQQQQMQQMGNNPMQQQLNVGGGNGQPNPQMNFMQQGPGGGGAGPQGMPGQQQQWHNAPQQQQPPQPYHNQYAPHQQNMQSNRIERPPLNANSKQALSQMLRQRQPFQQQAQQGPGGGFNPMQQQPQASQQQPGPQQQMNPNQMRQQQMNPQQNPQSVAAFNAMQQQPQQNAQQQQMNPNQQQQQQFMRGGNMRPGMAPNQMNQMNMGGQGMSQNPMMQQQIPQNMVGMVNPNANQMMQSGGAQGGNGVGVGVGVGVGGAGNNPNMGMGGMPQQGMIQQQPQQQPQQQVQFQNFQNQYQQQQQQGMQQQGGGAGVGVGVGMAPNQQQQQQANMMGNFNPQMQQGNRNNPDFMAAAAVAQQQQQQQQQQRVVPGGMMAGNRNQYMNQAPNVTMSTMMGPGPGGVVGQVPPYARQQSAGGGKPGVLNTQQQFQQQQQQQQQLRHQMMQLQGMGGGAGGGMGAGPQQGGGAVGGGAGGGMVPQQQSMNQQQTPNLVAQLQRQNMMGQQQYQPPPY
UniProt Q7KTX8: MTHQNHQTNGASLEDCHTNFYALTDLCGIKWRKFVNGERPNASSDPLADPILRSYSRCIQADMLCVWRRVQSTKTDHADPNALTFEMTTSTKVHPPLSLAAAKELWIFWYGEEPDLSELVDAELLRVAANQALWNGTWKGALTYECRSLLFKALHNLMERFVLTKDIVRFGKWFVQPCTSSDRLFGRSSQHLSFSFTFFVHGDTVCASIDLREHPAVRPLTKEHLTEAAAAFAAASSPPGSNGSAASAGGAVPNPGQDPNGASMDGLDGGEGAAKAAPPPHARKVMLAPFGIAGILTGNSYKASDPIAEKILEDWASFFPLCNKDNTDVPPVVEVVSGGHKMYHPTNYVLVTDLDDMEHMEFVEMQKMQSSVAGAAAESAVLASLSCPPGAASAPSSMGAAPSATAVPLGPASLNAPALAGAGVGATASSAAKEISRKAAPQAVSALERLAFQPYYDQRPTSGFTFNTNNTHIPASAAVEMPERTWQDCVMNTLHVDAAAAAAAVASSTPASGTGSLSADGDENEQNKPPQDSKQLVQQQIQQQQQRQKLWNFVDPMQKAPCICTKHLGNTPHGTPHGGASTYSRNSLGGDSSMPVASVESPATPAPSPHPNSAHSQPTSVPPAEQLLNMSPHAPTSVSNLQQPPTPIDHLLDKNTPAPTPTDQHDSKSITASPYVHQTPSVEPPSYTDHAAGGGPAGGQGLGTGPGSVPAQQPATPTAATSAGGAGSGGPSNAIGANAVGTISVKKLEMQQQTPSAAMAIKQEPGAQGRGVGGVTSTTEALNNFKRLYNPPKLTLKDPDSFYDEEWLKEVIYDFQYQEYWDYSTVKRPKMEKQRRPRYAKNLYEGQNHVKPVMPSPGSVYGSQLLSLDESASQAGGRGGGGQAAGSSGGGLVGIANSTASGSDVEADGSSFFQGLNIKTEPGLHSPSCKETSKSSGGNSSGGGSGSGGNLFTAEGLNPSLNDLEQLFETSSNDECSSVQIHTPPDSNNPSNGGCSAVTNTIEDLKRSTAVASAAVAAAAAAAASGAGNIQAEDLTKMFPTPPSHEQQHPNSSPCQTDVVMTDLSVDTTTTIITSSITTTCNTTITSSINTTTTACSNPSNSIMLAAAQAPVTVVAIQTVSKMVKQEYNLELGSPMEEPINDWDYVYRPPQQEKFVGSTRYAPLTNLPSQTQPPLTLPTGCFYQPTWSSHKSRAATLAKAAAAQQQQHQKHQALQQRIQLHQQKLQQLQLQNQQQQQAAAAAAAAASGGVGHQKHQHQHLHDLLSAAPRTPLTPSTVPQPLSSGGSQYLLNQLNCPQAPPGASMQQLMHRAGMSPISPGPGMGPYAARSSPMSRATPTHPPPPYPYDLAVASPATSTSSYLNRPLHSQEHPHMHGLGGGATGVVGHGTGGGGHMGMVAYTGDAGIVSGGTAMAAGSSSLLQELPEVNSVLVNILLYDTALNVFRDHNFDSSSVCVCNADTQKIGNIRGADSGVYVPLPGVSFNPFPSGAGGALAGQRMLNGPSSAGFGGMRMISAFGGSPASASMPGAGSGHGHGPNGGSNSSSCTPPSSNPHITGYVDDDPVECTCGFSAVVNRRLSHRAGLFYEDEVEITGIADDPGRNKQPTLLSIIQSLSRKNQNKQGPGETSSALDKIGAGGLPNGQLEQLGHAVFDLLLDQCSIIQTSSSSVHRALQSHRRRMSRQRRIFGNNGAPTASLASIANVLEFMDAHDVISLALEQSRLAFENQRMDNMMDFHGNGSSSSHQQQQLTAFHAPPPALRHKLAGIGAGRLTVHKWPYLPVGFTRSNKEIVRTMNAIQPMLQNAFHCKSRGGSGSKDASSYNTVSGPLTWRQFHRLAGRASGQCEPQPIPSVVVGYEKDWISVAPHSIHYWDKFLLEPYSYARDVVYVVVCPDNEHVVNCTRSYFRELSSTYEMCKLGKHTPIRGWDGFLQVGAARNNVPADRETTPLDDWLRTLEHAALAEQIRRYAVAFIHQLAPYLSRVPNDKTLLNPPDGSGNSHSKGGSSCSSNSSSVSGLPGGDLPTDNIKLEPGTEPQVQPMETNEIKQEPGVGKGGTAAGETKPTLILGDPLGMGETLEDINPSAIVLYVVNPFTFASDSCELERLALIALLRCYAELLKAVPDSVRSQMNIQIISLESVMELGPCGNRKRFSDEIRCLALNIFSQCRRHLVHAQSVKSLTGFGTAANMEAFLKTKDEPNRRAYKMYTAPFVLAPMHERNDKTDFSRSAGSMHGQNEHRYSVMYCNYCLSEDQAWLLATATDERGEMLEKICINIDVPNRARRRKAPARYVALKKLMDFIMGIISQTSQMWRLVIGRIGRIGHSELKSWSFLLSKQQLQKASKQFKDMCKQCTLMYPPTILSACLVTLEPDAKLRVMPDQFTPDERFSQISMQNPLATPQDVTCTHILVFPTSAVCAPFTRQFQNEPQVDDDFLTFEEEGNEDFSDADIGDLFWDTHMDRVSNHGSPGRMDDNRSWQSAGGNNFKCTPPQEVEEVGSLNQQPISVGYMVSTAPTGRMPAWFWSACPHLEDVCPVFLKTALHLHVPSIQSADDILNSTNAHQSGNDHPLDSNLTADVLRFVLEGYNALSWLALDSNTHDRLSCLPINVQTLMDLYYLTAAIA
UniProt Q9VT57: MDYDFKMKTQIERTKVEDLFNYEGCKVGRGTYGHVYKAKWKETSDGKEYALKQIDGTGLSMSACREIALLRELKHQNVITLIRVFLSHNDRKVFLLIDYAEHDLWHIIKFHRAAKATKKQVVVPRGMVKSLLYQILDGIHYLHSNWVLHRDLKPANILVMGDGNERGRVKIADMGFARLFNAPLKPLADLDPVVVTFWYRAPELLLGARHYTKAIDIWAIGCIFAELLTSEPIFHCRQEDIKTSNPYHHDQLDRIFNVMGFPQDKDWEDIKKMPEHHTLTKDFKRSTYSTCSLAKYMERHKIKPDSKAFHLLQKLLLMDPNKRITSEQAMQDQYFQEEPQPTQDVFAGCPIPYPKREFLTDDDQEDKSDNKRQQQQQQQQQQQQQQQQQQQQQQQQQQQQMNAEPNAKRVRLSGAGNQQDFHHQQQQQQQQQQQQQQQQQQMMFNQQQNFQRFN

T2: Ecdysone Receptor, isoform B1 (EcR-B1) (Drosophila melanogaster (endogenous in white prepupae)) (UniProt P34021)
T2 sequence: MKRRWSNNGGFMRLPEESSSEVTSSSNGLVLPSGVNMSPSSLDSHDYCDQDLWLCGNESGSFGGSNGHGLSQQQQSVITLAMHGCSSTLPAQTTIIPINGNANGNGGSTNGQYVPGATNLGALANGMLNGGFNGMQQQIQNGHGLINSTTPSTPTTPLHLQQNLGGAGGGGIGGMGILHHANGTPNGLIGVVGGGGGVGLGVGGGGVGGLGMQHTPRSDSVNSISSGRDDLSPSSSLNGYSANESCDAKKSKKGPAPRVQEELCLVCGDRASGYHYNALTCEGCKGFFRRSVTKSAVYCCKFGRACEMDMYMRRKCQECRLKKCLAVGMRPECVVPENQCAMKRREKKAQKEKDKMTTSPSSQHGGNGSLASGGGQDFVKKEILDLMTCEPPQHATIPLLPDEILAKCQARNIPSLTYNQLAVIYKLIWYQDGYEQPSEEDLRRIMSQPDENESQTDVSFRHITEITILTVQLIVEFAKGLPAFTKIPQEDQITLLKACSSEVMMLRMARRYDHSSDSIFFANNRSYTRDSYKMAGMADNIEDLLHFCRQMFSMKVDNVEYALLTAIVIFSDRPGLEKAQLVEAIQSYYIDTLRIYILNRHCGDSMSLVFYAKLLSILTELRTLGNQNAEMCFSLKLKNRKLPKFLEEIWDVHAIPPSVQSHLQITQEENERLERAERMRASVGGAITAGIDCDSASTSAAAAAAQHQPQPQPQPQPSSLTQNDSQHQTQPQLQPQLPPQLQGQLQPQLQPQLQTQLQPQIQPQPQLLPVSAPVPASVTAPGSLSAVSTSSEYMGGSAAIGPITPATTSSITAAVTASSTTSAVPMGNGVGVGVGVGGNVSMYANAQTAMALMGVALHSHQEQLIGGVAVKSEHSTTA


How the values were obtained:
[1] = molecular target: T1, Ultraspiracle (USP) (Drosophila melanogaster (endogenous in white prepupae)); assay: affinity purification with mass spectrometry; immunoprecipitates of EcR or USP from wild-type white prepupae; gel plug, trypsin, nano LC-MS/MS; two biological replicates combined
[2] = molecular target: T2, Ecdysone Receptor, isoform B1 (EcR-B1) (Drosophila melanogaster (endogenous in white prepupae)); assay: as above

Row | Molecule | binding [1] | binding [2]
1 | Taiman | binds | binds
2 | Med12 (encoded by kohtalo or kto) (from UniProt Q9VW47 1-2531) | binds | binds
3 | Med13 (encoded by skuld or skd) (from UniProt Q7KTX8 1-2618) | binds | binds
4 | Utx | binds | binds
5 | cyclin-dependent kinase 8 (CDK8) (from UniProt Q9VT57 1-454) (enzyme) | binds | binds
6 | Smrter (Smr) | binds | binds
7 | Hsp70 | binds | binds
8 | Cyclin C (CycC) (protein, UniProt P25008 1-267) MAGNFWQSSHSQQWILDKPDLLRERQHDLLALNEDEYQKVFIFFANVIQVLGEQLKLRQQVIATATVYFKRFYARNSLKNIDPLLLAPTCILLASKVEEFGVISNSRLISICQSAIKTKFSYAYAQEFPYRTNHILECEFYLLENLDCCLIVYQPYRPLLQLVQDMGQEDQLLTLSWRIVNDSLRTDVCLLYPPYQIAIACLQIACVILQKDATKQWFAELNVDLDKVQEIVRAIVNLYELWKDWKEKDEIQMLLSKIPKPKPPPQR | binds | binds
9 | Rigor mortis (Rig) (protein, UniProt Q86BY9 1-1235) MNSQVMYHNVPTPPGNVSLAAAAPDGGLLYAGIRCINYISAPPANGEQPQVVTMSTRINILALDVSPMWGLGNGGPTKPFAIVGDDLSVQVWDCALGEAVIGHKAHQHQHEARDVRVVHHTTNSVLMSYLANGNILSMDASDLVIYCVASNTYCRRSTFISPRNHQLTMVRCSPYNDNLFAVGTAMGNVLVCDLRKMNIVYKFHGHKAPICGLAWREVPAAEDEKTNNLALSAEEWRSRNGGQEEKPKTKPPPLTKSKAAESDDPFDIYNFDHLEYEFGAPIAERRRKSSEDCGGEFVGLEKPAGAAVLDFVEACESVKAELLASRQEDKTQHVEVTLHDCEPTKPTGPLSDASTISNKNDASDSTEGSLEVIQYSSSSDDAVIVDGEAAKPKREVLHHIYHQAEVHASGTPQTKSEPQSNLQVVPAISAETISLTSVNSTHLETLLVSIDGDEVMMIWNTNTGAHAGKNYSKSKTAGKLNNVYWLNNHVIVSLSRHQLFFWSVEFERKMLRYKISKDKSHSCHLQDIVSFACDSSKEMIWLCRNNRQIGMMNPKTGRMADFYGTVAFGVRAMAECPDDMNKIALGCSDRRVAFFDISKLTTSCLPIDSVYVSSNVYCLAWSPNCLELAFGTFDGTVGILDVERMKVKTHLRTPHKKEVYSLVWQDHFIYFIVNRVLGFFDLRKSKIEPTIVNCISRPSYLSIRDSFLFVGTDDGLLQIHERDSGMEKSWSPFIRQSALFARYVTDIAWCPLDSNKFAVSGNDRSVYVMEFQPTERNWKTLHTFTANTEKASITSMRWSHTQKHLLLTFHIEGKVCLWNCNAPEKPPLTITYHCPMWCGMFLPTNENIIMCSGKALSVELIDIKDALEGDEKSICPKVDALLNVKWASKSLTQPYAPVLTAAEKKRQRRDQRKAAAKLEVDVANKDQKKIQESVTAVIDNPTNDKCTQETPVEEMLEALSLDKEQNNRSAKECPKCKEQSPDSFTHSRTCLYLTQKELNKSALEKLAIVLTEDSAKIDKSVLISKLFSSKVMAKELIATELTNLKHSNTKDIAPLCLAMSTFKLREELEQHIANKTLTERHVSLAPSVSFTLWQDCCRAYAKQMEEKGYIMHAATYLFSQGMQSEAIKLFLANEYYKEALVHARICLPATDPLIKTVINNWLEHLEGTGNFAAAALICVLDNEMLRGYSYLRKYRNCTPEIADLMDQIKRIGQLGGVLDGCAPNEPIHNGSTAEH | binds | binds
